Results from publication PMC8389850, “The PilB-PilZ-FimX regulatory complex of the Type IV pilus from Xanthomonas citri” (PLoS Pathogens, 2021).
No constants are given. Whether binding was seen depends on the method and setting.

Columns and labels:
[1] = target: PilB_(1-190), His tag removed (Xanthomonas citri pv. citri strain 306); test: SEC-MALS; both purified
[2] = target: PilB_(12-163) (Xanthomonas citri pv. citri strain 306); test: SEC-MALS; both purified

| Substance | binding [1] | binding [2] |
| --- | --- | --- |
| PilB_(1-190), His tag removed (from UniProt A0AAI7ZH88 1-190) (domain or fragment) | no binding (tested: 3.0 mg/ml to 4.0 mg/ml) | – |
| PilB_(12-163) (from UniProt A0AAI7ZH88 12-163) (domain or fragment) | – | no binding (tested: 3.0 mg/ml to 4.0 mg/ml) |
